Assay results: article PMC10774444, “BPG4 regulates chloroplast development and homeostasis by suppressing GLK transcription factors and involving light and brassinosteroid signaling”

The chains behind the UniProt entries cited, without tags or fusion partners. Where a name states a change or a piece, a line headed by the entry shows the natural chain unless it says otherwise.
UniProt Q9LN63: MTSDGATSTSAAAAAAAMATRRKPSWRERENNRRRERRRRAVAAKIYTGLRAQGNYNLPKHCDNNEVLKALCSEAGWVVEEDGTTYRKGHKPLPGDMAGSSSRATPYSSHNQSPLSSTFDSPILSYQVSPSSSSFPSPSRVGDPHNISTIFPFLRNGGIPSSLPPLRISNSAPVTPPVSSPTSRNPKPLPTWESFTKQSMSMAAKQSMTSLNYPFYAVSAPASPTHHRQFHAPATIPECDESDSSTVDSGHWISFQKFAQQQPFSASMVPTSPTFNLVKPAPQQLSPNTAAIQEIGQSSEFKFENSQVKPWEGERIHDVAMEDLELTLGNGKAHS

What was measured:
MBP-BES1 DBD = MBP-BES1 DBD (UniProt Q9LN63); assay: EMSA; details: GLK1 EMSA: 10 mM Tris-HCl pH 8.0, 50 mM KCl, 10 mM EDTA, 2.5% glycerol, 1 mM DTT, 0.05 ug/ul poly(dI-dC), 5 pmol probe; recombinant protein; protein details: MBP; label: FAM
GST-GLK1 = biological target: T1, GST-GLK1 (UniProt Q9SIV3); assay: EMSA; details: plus MBP-BPG4 (full-length BPG4, molar ratio to GST-GLK1 1.4, 2.7, 5.4), dose-dependent decrease; GLK1 EMSA: 10 mM Tris-HCl pH 8.0, 50 mM KCl, 10 mM EDTA, 2.5% glycerol, 1 mM DTT, 0.05 ug/ul poly(dI-dC), 5 pmol probe; recombinant protein; residues 1-420; protein details: N-term GST (pGEX-6P-3); label: FAM
T1 sequence (looked up): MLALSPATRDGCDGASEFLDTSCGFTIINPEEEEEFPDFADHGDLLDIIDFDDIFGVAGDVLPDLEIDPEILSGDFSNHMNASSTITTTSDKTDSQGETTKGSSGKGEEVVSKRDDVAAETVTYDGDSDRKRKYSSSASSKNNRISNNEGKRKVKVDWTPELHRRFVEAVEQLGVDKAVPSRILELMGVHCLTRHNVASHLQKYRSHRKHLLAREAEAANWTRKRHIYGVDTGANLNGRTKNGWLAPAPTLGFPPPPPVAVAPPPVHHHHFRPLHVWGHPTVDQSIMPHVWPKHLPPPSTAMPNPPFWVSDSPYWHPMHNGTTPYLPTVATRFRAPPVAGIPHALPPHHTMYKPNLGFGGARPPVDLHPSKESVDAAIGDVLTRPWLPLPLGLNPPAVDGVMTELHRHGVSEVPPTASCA

Sequence	binding result (MBP-BES1 DBD)	binding result (GST-GLK1)
GGGGCCATGGATAAAAAAGAGGATGCGTGA (double strand) [BPG4 mG-box-1]	no binding	–
TGATCAATCTCCAAAAAAGGGCTTCTGGCC (double strand) [BPG4 mG-box-2]	no binding	–
TTTAGATCCCATGATTCTCAACACGACTGA (double strand) [CAO-probe]	–	binds more weakly

Construct, isoform or probe ends are uncertain for at least one entry. For part of these data: Negatives hold for the conditions tested. For part of these data: At least one verdict rests on a figure or table, not on a statement of the authors. For part of these data: The comparison behind a weaker result is the experiment's own reference, which may not be listed here. For part of these data: Tags and fusion partners may be left off the protein sequences shown.
